Measured values taken from the supplement of paper PMC6078165.
The reference is the same well before dosing, and untreated signal decays as well.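 Labels refer to human fibroblasts, largely primary: uterine (C12385, HUF), lung (H6013), bone (Hs27A), adrenal (HADF), skin (WS1), plus mammary HMF and breast cancer-associated Hs343T. Cancer lines are basal-like or mesenchymal-like triple-negative breast cancer. The paper counts as hits responses shifting over 3x the replicate standard deviation. The tissue of the other fibroblasts is not given here.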

Test system: MDAMB231
Experiment: relative JC-1 red fluorescence (viability) vs pre-drug, coculture with fibroblast (fraction); higher = more viable cancer cells
Method: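 JC-1 labelled TNBC cells cocultured 1:1 (1,500 cells each) with CellTrace Violet stained primary or stromal fibroblasts in 384-well plates in FluoroBrite medium, treated with one of 42 anticancer drugs at 0.1, 1, 10 or 100 uM. JC-1 red fluorescence (mitochondrial integrity in cancer cells only) was read by plate reader every 8 h for 72 h. Values are normalised to each well's pre-drug value. The stock of one drug was tenfold lower, so its dose labels may be too high.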

CN(Cc1cnc2nc(N)nc(N)c2n1)c1ccc(C(=O)N[C@@H](CCC(=O)O)C(=O)O)cc1 [Methotrexate]
relative JC-1 red fluorescence
Settings	8 h	16 h	24 h	32 h	40 h	48 h	56 h	64 h	72 h
0.1 µM, coculture fibroblast: C12385	0.7683	0.7	0.655	0.586	0.52	0.493	0.454	0.46	0.446
0.1 µM, coculture fibroblast: H6013	0.904	0.802	0.766	0.737	0.704	0.698	0.678	0.661	0.624
0.1 µM, coculture fibroblast: H6019	0.749	0.6585	0.635	0.59225	0.5463	0.5481	0.508	0.496	0.472
0.1 µM, coculture fibroblast: H6076	0.844	0.776	0.729	0.705	0.666	0.639	0.613	0.597	0.584
0.1 µM, coculture fibroblast: H6231	0.916	0.815	0.7172	0.6554	0.5914	0.559	0.515	0.497	0.47
0.1 µM, coculture fibroblast: HADF	0.909	0.838	0.801	0.771	0.739	0.707	0.688	0.675	0.629
0.1 µM, coculture fibroblast: HCFa	0.8763	0.806	0.759	0.722	0.6852	0.651	0.6128	0.582	0.54
0.1 µM, coculture fibroblast: HCPF	0.88	0.744	0.665	0.6209	0.55537	0.5066	0.4689	0.433	0.416
0.1 µM, coculture fibroblast: HHSteC	0.913	0.8604	0.805	0.747	0.698	0.667	0.623	0.604	0.558
0.1 µM, coculture fibroblast: HMF	0.855	0.757	0.684	0.64	0.591	0.555	0.513	0.496	0.476
0.1 µM, coculture fibroblast: HPFa	0.9486	0.874	0.805	0.747	0.713	0.674	0.616	0.59	0.546
0.1 µM, coculture fibroblast: HUF	0.8159	0.684	0.687	0.571	0.504	0.48	0.435	0.435	0.414
0.1 µM, coculture fibroblast: Hs5	0.796	0.72	0.6683	0.623	0.596	0.537	0.508	0.488	0.462
0.1 µM, coculture fibroblast: Hs27A	0.898	0.838	0.806	0.778	0.723	0.661	0.667	0.652	0.606
0.1 µM, coculture fibroblast: Hs343T	0.819	0.7019	0.639	0.601	0.556	0.507	0.462	0.448	0.432
0.1 µM, coculture fibroblast: WS1	0.768	0.6476	0.621	0.541	0.496	0.472	0.434	0.438	0.426
1 µM, coculture fibroblast: C12385	0.771	0.6623	0.694	0.6	0.541	0.527	0.489	0.5	0.487
1 µM, coculture fibroblast: H6013	0.911	0.829	0.78	0.768	0.737	0.724	0.715	0.693	0.66
1 µM, coculture fibroblast: H6019	0.734	0.671	0.662	0.606	0.576	0.56	0.517	0.513	0.48
1 µM, coculture fibroblast: H6076	0.848	0.751	0.71	0.687	0.652	0.621	0.6	0.589	0.587
1 µM, coculture fibroblast: H6231	0.9112	0.83	0.755	0.704	0.6485	0.612	0.5806	0.5586	0.531
1 µM, coculture fibroblast: HADF	0.892	0.793	0.743	0.704	0.663	0.632	0.608	0.598	0.552
1 µM, coculture fibroblast: HCFa	0.8994	0.807	0.7436	0.682	0.637	0.582	0.547	0.516	0.4638
1 µM, coculture fibroblast: HCPF	0.877	0.76	0.713	0.681	0.629	0.593	0.569	0.546	0.528
1 µM, coculture fibroblast: HHSteC	0.927	0.846	0.806	0.745	0.693	0.664	0.614	0.593	0.548
1 µM, coculture fibroblast: HMF	0.844	0.745	0.696	0.663	0.616	0.575	0.555	0.531	0.516
1 µM, coculture fibroblast: HPFa	0.943	0.8873	0.839	0.781	0.749	0.716	0.66	0.633	0.589
1 µM, coculture fibroblast: HUF	0.879	0.7443	0.757	0.6328	0.5561	0.5326	0.48	0.467	0.449
1 µM, coculture fibroblast: Hs5	0.886	0.775	0.729	0.671	0.63	0.574	0.55	0.531	0.516
1 µM, coculture fibroblast: Hs27A	0.8979	0.847	0.813	0.781	0.735	0.6845	0.6822	0.6712	0.624
1 µM, coculture fibroblast: Hs343T	0.921	0.806	0.741	0.673	0.598	0.538	0.488	0.468	0.436
1 µM, coculture fibroblast: WS1	0.754	0.643	0.6365	0.553	0.508	0.489	0.457	0.46	0.4483
